Results of single-concentration screens

The chains behind the UniProt entries cited, without tags or fusion partners.
UniProt P9WFT3, whole entry: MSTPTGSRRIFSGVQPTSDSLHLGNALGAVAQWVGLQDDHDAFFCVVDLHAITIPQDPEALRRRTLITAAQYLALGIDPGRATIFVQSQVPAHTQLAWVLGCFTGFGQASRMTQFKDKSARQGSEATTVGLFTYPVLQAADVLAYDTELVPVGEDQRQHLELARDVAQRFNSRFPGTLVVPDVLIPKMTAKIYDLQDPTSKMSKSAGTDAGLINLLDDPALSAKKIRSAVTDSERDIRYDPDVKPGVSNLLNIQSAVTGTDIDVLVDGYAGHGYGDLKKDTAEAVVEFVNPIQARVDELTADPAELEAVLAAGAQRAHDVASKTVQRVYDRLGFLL
UniProt P9WNZ1, whole entry: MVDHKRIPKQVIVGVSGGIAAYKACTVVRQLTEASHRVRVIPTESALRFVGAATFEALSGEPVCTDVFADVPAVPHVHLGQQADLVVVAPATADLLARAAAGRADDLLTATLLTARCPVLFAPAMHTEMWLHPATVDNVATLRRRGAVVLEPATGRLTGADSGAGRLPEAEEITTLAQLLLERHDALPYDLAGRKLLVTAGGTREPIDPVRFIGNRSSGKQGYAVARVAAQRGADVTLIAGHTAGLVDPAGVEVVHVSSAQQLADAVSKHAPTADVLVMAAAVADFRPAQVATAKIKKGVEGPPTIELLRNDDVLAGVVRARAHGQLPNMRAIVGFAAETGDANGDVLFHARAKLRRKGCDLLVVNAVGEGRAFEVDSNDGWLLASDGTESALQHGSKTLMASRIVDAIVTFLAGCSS
UniProt P9WPC5, whole entry: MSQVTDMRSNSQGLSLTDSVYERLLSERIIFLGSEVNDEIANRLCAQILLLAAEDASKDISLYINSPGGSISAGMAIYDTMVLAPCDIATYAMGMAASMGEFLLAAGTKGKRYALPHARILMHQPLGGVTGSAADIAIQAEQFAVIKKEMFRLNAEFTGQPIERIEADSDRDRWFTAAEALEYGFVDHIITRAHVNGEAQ
UniProt P9WPC3, whole entry partner: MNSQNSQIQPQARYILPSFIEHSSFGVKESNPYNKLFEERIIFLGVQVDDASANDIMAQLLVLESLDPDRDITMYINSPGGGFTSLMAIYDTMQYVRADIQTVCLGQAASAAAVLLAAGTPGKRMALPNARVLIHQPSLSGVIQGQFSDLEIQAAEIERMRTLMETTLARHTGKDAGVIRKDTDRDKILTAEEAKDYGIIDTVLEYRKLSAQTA

Measurements from “University of Dundee, Small-Polar-MMV Screening Library” (2021), ChEMBL document CHEMBL3988442.

Each number is a percent effect as filed. The controls that fix the scale are not given in the record; negative values are as filed. This is an unselected part of the compounds tested. A dash means the value is not listed here; it may have been measured.

MtTrpRS: 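Enzyme assay of tryptophanyl-tRNA synthetase; the read-out is not stated. Target: Tryptophan-tRNA ligase, Mycobacterium tuberculosis (UniProt P9WFT3). Tested at 10 µM. Direction is not recorded; retested compounds ran higher, which suggests that high means inhibition. Size under these conditions: about 65,000 compounds, about 64 of them at 50% or above in at least one test.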
CoaBC: 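Coenzyme A biosynthesis protein CoaBC, Mycobacterium tuberculosis (UniProt P9WNZ1). Enzyme assay of CoaBC with a phosphate dye (Biomol Green) read at 650 nm. Concentration: 30 µM. Direction is inferred from only a few compounds that gave an IC50; most scored high, so higher reads as stronger inhibition. Most strong results did not repeat in a second test. Size under these conditions: about 67,000 compounds, about 40 of them at 50% or above in at least one test.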
ClpP1P2: 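ClpP1P2, Mycobacterium tuberculosis (UniProt P9WPC5 and UniProt P9WPC3). Protease assay of ClpP1P2, read by the AMC dye that it sets free. Tested at 50 µM. Direction is inferred from only a few compounds that gave an IC50; most scored high, so higher reads as stronger inhibition. Most other retested compounds had strongly negative values. About 69,000 compounds were tested under these conditions; 0.015% (about 10) showed 50% or more at least once.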

Compound	MtTrpRS	CoaBC	ClpP1P2
Cc1cc(C2CCC2)nc(N2CCC3(CCNC(=O)CC3)CC2)n1	0%	-3.435%	4.67%
O=C(c1cscn1)N1CC[C@@H]2[C@@H]1CCN2CC1CCOCC1	-	0.7317%	9.023%
CN1CCOC(C)(C(=O)Nc2nccs2)C1 (stereo not drawn)	15.89%	-0.9569%	26.71%
COc1ccccc1CC(=O)N1CCC(NCc2ccncc2)CC1	0.6773%	13.33%	-16.36%
Cn1cc(-c2nnn3c2COC(CNCc2ccccn2)C3)cn1 (stereo not drawn)	-6.281%	3.609%	2.715%
N#CCSCCCN1CCCC(C(=O)N2CCCCCC2)C1 (stereo not drawn)	-2.387%	3.719%	-10.43%
O=C(c1cnc(Nc2ccccc2)nc1)N1CCC2(CCNCC2)CC1	-1.104%	-34.9%	7.864%
CCn1c(C2CCCN(Cc3ccc4ccccc4n3)C2)nn(C)c1=O (stereo not drawn)	0.2639%	11.59%	-3.9%
Cc1cccc(CN2CCC3(CCC(CC(=O)N(C)C)CC3)CC2)n1	-9.24%	2.463%	6.164%
Cc1cnn(-c2cccc(N3CCCCC3)n2)c1	-0.819%	-3.204%	1.115%
Cc1ccccc1C(C)NC(=O)CN1CCN(Cc2ccc(Cl)s2)CC1 (stereo not drawn)	1.312%	-	1.207%
CC1CCCCN1CCNC(=O)c1ccccc1N1CCOCC1 (stereo not drawn)	-3.098%	0.8485%	7.666%
CCOc1ccccc1-n1c(C2CC(=O)N(C)C2)n[nH]c1=O (stereo not drawn)	-1.836%	6.399%	-11.92%
O=C(c1ccc(F)cc1F)N(CC(F)(F)F)C1CCOCC1	-0.08333%	4.602%	1.08%
Cc1cnc(NCc2ccncc2)nc1-c1cnn(C)c1	13.63%	7.654%	-11.78%
Cn1nnnc1SCC1COc2ccccc2O1 (stereo not drawn)	-	-3.067%	0.578%
CC(C)COC(C)C(=O)N1CCN(S(C)(=O)=O)CC1 (stereo not drawn)	-0.3564%	4.904%	5.127%
O=S1(=O)COCCN1Cc1ccc(F)c(F)c1	0.7337%	2.286%	-3.241%
CC(C)Cc1nnc(NCc2ccsc2)o1	2.89%	-	-13.06%
CCN(CC1CN(CCc2ccccn2)CCO1)c1cccnn1 (stereo not drawn)	2.309%	1.339%	4.51%
CN(Cc1ncc[nH]1)S(=O)(=O)c1cccc(C(=O)N2CCOCC2)c1	-1.354%	-4.051%	0.5819%
O=C(CCCNc1ncccn1)N1CCCC(n2ccnc2)C1 (stereo not drawn)	-6.901%	-1.908%	-3.239%
Cc1cccc2cc(C(=O)N3CCC(F)(F)CC3)n(C)c12	4.238%	-11.49%	10.29%
Cc1nn(C)c(N(C)C)c1CNCc1ccccc1Cn1cccn1	0.2556%	3.181%	-10.85%
CCc1noc(CS(=O)(=O)C(C)c2nc(C3CC3)no2)n1 (stereo not drawn)	7.547%	-5.462%	-3.471%
Cn1nnc2c1CCN(S(C)(=O)=O)C2COCC1CC1 (stereo not drawn)	0.2114%	2.748%	-10.57%
CNS(=O)(=O)c1csc(C(=O)N(C)Cc2ccccc2C)c1	3.641%	5.579%	-2.999%
CNc1nc(CNC(=O)Nc2ccc(SC)c(F)c2)cs1	-6.676%	2.864%	-19.67%
Cc1c[nH]c(CN(C)C(C(=O)O)c2c(F)cccc2Cl)n1 (stereo not drawn)	3.841%	1.341%	-6.282%
N#CCCN(CC1CCOC1)Cn1ccc(-c2ccccc2)n1 (stereo not drawn)	-1.009%	12.09%	-5.157%
Cc1cc(CN2CC[C@H]3[C@H]2CCN3CC(=O)N(C)C)oc1C	-5.578%	5.852%	-4.213%
Cc1cc(C(=O)N2CCCC(n3ccnc3)C2)c(C)n1C1CC1 (stereo not drawn)	-3.918%	0.5362%	-14.04%
COc1ncccc1C(=O)N1C[C@@H]2COC[C@]2(CN(C)C)C1	-3.004%	-	-2.331%
Cn1ncc2c1NC(=O)CC2c1ccccc1Cl (stereo not drawn)	3.496%	2.564%	-4.517%
CC(C)N1CCC(Nc2ccn(C)n2)C1=O (stereo not drawn)	-6.924%	2.137%	-10.59%
COCC(=O)NCc1cc(=O)n2c(n1)CN(Cc1ccco1)CCC2	-	2.222%	1.367%
CSc1ccc(CN2CCn3nc(CNC(C)=O)cc3C2)cc1	0.5439%	2.911%	-12.47%
CS(=O)(=O)Cc1ccc(NC(=O)c2cccnc2)cc1F	-5.047%	11.65%	-9.562%
Cc1nc(-c2nnc(SCC(=O)O)n2C(C)c2ccccc2)co1 (stereo not drawn)	-2.972%	6.036%	2.195%
CNC(=O)CN1CCc2c(CNc3nccs3)n[nH]c2C1	4.703%	5.263%	-3.033%
O=C1N(CC2CCCC2)CCC12CCN(c1ncc(F)cn1)CC2	-2.985%	-1.647%	12.57%
CS(=O)(=O)NCc1ncn2c1CN(C(=O)C1CCCO1)CCC2 (stereo not drawn)	-	-1.856%	8.348%
CCc1c(C)sc2nc3n(CCN4CCCCC4)nc(SC)n3c(=O)c12	1.22%	1.646%	-2.735%
CCOC(=O)C1CSCCN1C(=O)c1ccc(-n2nc(C)cc2C)cc1 (stereo not drawn)	0.4955%	2.444%	7.296%
CN1CC(C(=O)NCc2cccnc2-n2cccn2)CC1=O (stereo not drawn)	-1.505%	-2.872%	-42.93%
COc1cccc(N2CC3(CCN(c4cnccn4)C3)CC2=O)c1 (stereo not drawn)	16.18%	-12%	-2.788%
CCN1CCCC(O)(c2nc(C)c(CCOc3ccccc3Cl)s2)CC1 (stereo not drawn)	-0.9412%	4.326%	0.3821%
O=C(O)CCc1ccc(S(=O)(=O)Nc2cnn(CC(F)(F)F)c2)cc1	3.155%	-9.896%	-8.676%
CC(c1cccnc1)N(C)Cc1cc2cc3c(cc2[nH]c1=O)OCO3 (stereo not drawn)	4.187%	6.277%	-71.98%
C/C=C(/C)C(=O)NS(=O)(=O)c1ccc(Cl)cn1	-1.845%	4.466%	-6.282%
CC(C)(C(=O)N[C@@H]1CCC[C@@H](O)[C@@H]1O)c1cccc(F)c1	-2.285%	-3.874%	-7.666%
COc1ccc(C2(C(=O)N3CC[C@@]4(O)CCNC[C@H]4C3)CCCC2)cc1	1.26%	3.581%	-14.26%
Cc1cc(C(=O)Cn2cnnc2[S+](C)[O-])cc(C)c1F (stereo not drawn)	19.44%	-6.867%	-5.714%
CC(=O)N1CCCN(CCCSc2ccccc2Cl)CC1	-5.106%	-2.174%	-5.249%
N#Cc1cc2c(=O)n(CC(O)Cc3ccccc3)ccc2[nH]c1=O (stereo not drawn)	-2.113%	15.02%	-292.2%
CN(Cc1nc2ccccc2o1)C1CCCN(c2cccnn2)C1 (stereo not drawn)	22.97%	-0.6818%	-18.11%
O=C(NCCCO)C1CC(=O)N(c2n[nH]c3cccc(F)c23)C1 (stereo not drawn)	0.201%	-4.441%	7.865%
Cc1cccc(S(=O)(=O)N2CCC3(CC2)CC(N(C)C)CO3)c1 (stereo not drawn)	-9.894%	3.448%	-2.289%
CCn1ncc2c1C(COCC1CC1)N(Cc1cnn(C)c1)CC2 (stereo not drawn)	-7.546%	-3.75%	2.252%
c1cnc(N2CCc3onc(CN4CCOCC4)c3C2)cn1	-	1.463%	-0.1045%
CNc1oc(-c2ccc(OC)c(S(=O)(=O)N3CCCC3)c2)nc1C#N	-3.291%	4.04%	-12.56%
COc1cccc(-n2cc(-c3ccnc(N[C@H](CO)C(C)C)n3)cn2)c1	-29.2%	6.098%	-1.815%
Cc1csc(CN2CCC3(CC2)COC(COCC2CC2)C3)n1 (stereo not drawn)	-	5.074%	10.64%
COc1cccc(C2(NC(=O)CCNC(C)=O)CC2)c1	-4.263%	-5.353%	-3.839%
CCOc1cccc(CCNC(=O)NC2CCc3[nH]ncc3C2)n1 (stereo not drawn)	0.3425%	0.2404%	-16.05%
N#Cc1ccnc(N2CCN(CC(O)c3ccc(F)c(F)c3)CC2)c1 (stereo not drawn)	-0.831%	-0.1972%	1.018%
O=C(O)C(c1ccc2c(c1)OCCO2)N1CCC(N2CCOCC2)CC1 (stereo not drawn)	9.62%	1.028%	-1.516%
Cc1nn(C)c(N2CCOCC2)c1CNC(C)c1ccco1 (stereo not drawn)	6.066%	4.641%	-8.28%

The last 5 entries again:

* COc1cccc(C2(NC(=O)CCNC(C)=O)CC2)c1 : MtTrpRS: -4.263%; CoaBC: -5.353%; ClpP1P2: -3.839%
* CCOc1cccc(CCNC(=O)NC2CCc3[nH]ncc3C2)n1 (stereo not drawn) : MtTrpRS: 0.3425%; CoaBC: 0.2404%; ClpP1P2: -16.05%
* N#Cc1ccnc(N2CCN(CC(O)c3ccc(F)c(F)c3)CC2)c1 (stereo not drawn) : MtTrpRS: -0.831%; CoaBC: -0.1972%; ClpP1P2: 1.018%
* O=C(O)C(c1ccc2c(c1)OCCO2)N1CCC(N2CCOCC2)CC1 (stereo not drawn) : MtTrpRS: 9.62%; CoaBC: 1.028%; ClpP1P2: -1.516%
* Cc1nn(C)c(N2CCOCC2)c1CNC(C)c1ccco1 (stereo not drawn) : MtTrpRS: 6.066%; CoaBC: 4.641%; ClpP1P2: -8.28%